The list does not hold the whole screen: it is rich in T/C values a quarter to a half above the control, in often repeated tests (any T/C) and in doses without a T/C. Further doses and runs are listed elsewhere. T/C gives the treated animals as a percentage of the vehicle group. Some entries give survivors of the animals treated and no T/C: the source files T/C as zero there, which appears to mark a toxic dose or a test without result, not a measured value. Some survivor counts are full or nearly so, which does not show that the dose was tolerated: the source hardly ever lists a survival T/C far under the control, and the zero likely stands for such cases as well. Survivors were counted at the toxicity check, usually on the fifth day, unless a day is given; later deaths do not show. Schedules are NCI's codes, read here as Q, the interval in days (D) or hours (H), X, the number of doses. Brackets with × count equal records among those shown. Some entries hold several experiments; the results are listed from low to high. For survival time, this PubChem deposit counts one and a half times the control or more as active, and values a quarter to a half above the control carry no call in these data; other NCI protocols may use other cut-offs. Some T/C values carry the count of animals alive at the toxicity check (mostly the fifth day); without a count, all were alive then.
Test system: P388 leukemia ip, CD2F1 mice, survival T/C
Assay: NCI In Vivo Anticancer Drug Screen. Data for tumor model P388 Leukemia (intraperitoneal) in CD2F1 (CDF1) mice
Conditions: T/C endpoint: median survival time, higher T/C = longer survival
[1] = dose: 100.0 mg/kg/injection, schedule: Q01DX009 (ip), vehicle: other
[2] = dose: 200.0 mg/kg/injection, schedule: Q01DX005 (ip), vehicle: saline
[3] = dose: 50.0 mg/kg/injection, schedule: Q01DX009 (ip), vehicle: saline
[4] = dose: 100.0 mg/kg/injection, schedule: Q01DX009 (ip), vehicle: saline
[5] = dose: 200.0 mg/kg/injection, schedule: Q01DX009 (ip), vehicle: saline
[6] = dose: 400.0 mg/kg/injection, schedule: Q01DX009 (ip), vehicle: saline
[7] = dose: 240.0 mg/kg/injection, schedule: Q01DX005 (ip), vehicle: saline with Tween-80
[8] = dose: 60.0 mg/kg/injection, schedule: Q01DX005 (ip), vehicle: Klucel (hydroxypropylcellulose) (HPC)
[9] = dose: 120.0 mg/kg/injection, schedule: Q01DX005 (ip), vehicle: Klucel (hydroxypropylcellulose) (HPC)
[10] = dose: 240.0 mg/kg/injection, schedule: Q01DX005 (ip), vehicle: Klucel (hydroxypropylcellulose) (HPC)
[11] = dose: 60.0 mg/kg/injection, schedule: Q01DX005 (ip), vehicle: saline
[12] = dose: 240.0 mg/kg/injection, schedule: Q01DX005 (ip), vehicle: saline
[13] = dose: 200.0 mg/kg/injection, schedule: Q01DX005 (ip), vehicle: saline with Tween-80
[14] = dose: 200.0 mg/kg/injection, schedule: Q01DX005 (ip), vehicle: Klucel (hydroxypropylcellulose) (HPC)

## COc1cc(CC2c3cc(OC)c(OC)cc3CCN2C)c(NC(=O)c2ccc(C(=O)Nc3cc(OC)c(OC)cc3CC3c4cc(OC)c(OC)cc4CCN3C)cc2)cc1OC (stereo not drawn)
[1]
  survivor count: 6 of 6

## CC(=O)Oc1ccc(CO)cc1OC(C)=O
[2]
  survivor count: 1 of 6
dose: 400.0 mg/kg/injection, schedule: Q01DX005 (ip), vehicle: saline
  survivor count: 0 of 6

## CCC(C)(C)C(=O)O
dose: 400.0 mg/kg/injection, schedule: Q01DX009 (ip), vehicle: saline with Tween-80
  survivor count: 4 of 6

## Clc1cccc(Cl)c1NC1=NCCS1
dose: 200.0 mg/kg/injection, schedule: Q01DX009 (ip), vehicle: Klucel (hydroxypropylcellulose) (HPC)
  survivor count: 0 of 6

## CCN(CC)CCCNc1cc(OC)cc2nc3cc(Cl)ccc3nc12
[2]
  survivor count: 3 of 5

## CC(=O)Oc1ccc(=O)[nH]c1
dose: 25.0 mg/kg/injection, schedule: Q01DX009 (ip), vehicle: saline
  T/C: 100 (2×), 101, 112 % of control
[3]
  T/C: 100, 103, 105, 112 % of control
[4]
  T/C: 102, 109, 112 % of control (2×)
[5]
  T/C: 110, 115, 119, 121 % of control
[6]
  T/C: 132 % of control
  survivor count: 3 of 6, 5 of 6, 6 of 6

## CN(C)c1ccc(/C=C/C=N/NC(=S)NC23CC4CC(CC(C4)C2)C3)cc1
[7]
  survivor count: 6 of 6

## O=C1C2C3(CCl)C1C23CCl (stereo not drawn)
[8]
  survivor count: 0 of 6
[9]
  survivor count: 0 of 6
[10]
  survivor count: 0 of 6

## COc1cc(OC)c(C(=O)C(CN(C)C)CN(C)C)cc1OC
dose: 15.0 mg/kg/injection, schedule: Q01DX005 (ip), vehicle: other
  survivor count: 3 of 6
dose: 30.0 mg/kg/injection, schedule: Q01DX005 (ip), vehicle: other
  survivor count: 0 of 6
dose: 30.0 mg/kg/injection, schedule: Q01DX005 (ip), vehicle: saline
  survivor count: 0 of 6
dose: 60.0 mg/kg/injection, schedule: Q01DX005 (ip), vehicle: other
  survivor count: 0 of 6
[11]
  T/C: 139 % of control
  survivor count: 0 of 6
dose: 120.0 mg/kg/injection, schedule: Q01DX005 (ip), vehicle: other
  survivor count: 0 of 6
dose: 120.0 mg/kg/injection, schedule: Q01DX005 (ip), vehicle: saline
  survivor count: 0 of 6
dose: 240.0 mg/kg/injection, schedule: Q01DX005 (ip), vehicle: other
  survivor count: 0 of 6
[12]
  survivor count: 0 of 6

## O=c1nc(-c2ccco2)sc(=O)[nH]1
dose: 100.0 mg/kg/injection, schedule: Q01DX009 (ip), vehicle: Klucel (hydroxypropylcellulose) (HPC)
  T/C: 125 % of control

## Cc1ccc2c(ccc(/C=C/c3ccc(O)c4ncccc34)[n+]2C)c1
dose: 50.0 mg/kg/injection, schedule: Q01DX009 (ip), vehicle: saline with Tween-80
  survivor count: 5 of 6

## CCCCOP(=O)(OCCCC)C(CC(=O)N(CCCC)CCCC)C(=O)N(CCCC)CCCC (stereo not drawn)
[13]
  survivor count: 0 of 5

## O=C(O)CCCCCCC(=O)CCl
dose: 200.0 mg/kg/injection, schedule: Q04DX003 (ip), vehicle: saline
  survivor count: 5 of 6
dose: 200.0 mg/kg/injection, schedule: Q04DX003 (ip), vehicle: suspension in saline
  T/C: 128 % of control

## CCn1c2ccc(C(=O)CCCN3CCCCC3)cc2c2cc(C(=O)CCCN3CCCCC3)ccc21
[3]
  T/C: 91 [4 of 6 alive] and 98 % of control
  survivor count: 6 of 6 (2×)
[4]
  survivor count: 0 of 6
[5]
  survivor count: 0 of 6

## O=C(O)c1cc(=O)c2c(OCC(O)COc3cccc4oc(C(=O)O)cc(=O)c34)cccc2o1.[Cu+2]
dose: 100.0 mg/kg/injection, schedule: Q04DX002 (ip), vehicle: Klucel (hydroxypropylcellulose) (HPC)
  survivor count: 6 of 6
dose: 200.0 mg/kg/injection, schedule: Q04DX002 (ip), vehicle: Klucel (hydroxypropylcellulose) (HPC)
  survivor count: 6 of 6
dose: 400.0 mg/kg/injection, schedule: Q04DX002 (ip), vehicle: Klucel (hydroxypropylcellulose) (HPC)
  survivor count: 4 of 6

## O=C1c2ccccc2C(=O)c2c1ccc1ccccc21
[13]
  survivor count: 1 of 5

## CC(C)C(Nc1ncnc2c1CCc1ccccc1-2)C(=O)O (stereo not drawn)
dose: 200.0 mg/kg/injection, schedule: Q04DX002 (ip), vehicle: saline with Tween-80
  survivor count: 2 of 6

## CC(CO)CCC1OC2CC3C4CC=C5CC(O)CCC5(C)C4CCC3(C)C2C1C (stereo not drawn)
dose: 18.0 mg/kg/injection, schedule: Q01DX005 (ip), vehicle: Klucel (hydroxypropylcellulose) (HPC)
  survivor count: 6 of 6

## CCOc1c(N=Nc2ccccc2[N+](=O)[O-])c(C)nn1C(N)=S
dose: 120.0 mg/kg/injection, schedule: Q01DX005 (ip), vehicle: Klucel + Tween-80
  survivor count: 0 of 6
dose: 240.0 mg/kg/injection, schedule: Q01DX005 (ip), vehicle: Klucel + Tween-80
  survivor count: 0 of 6

## CN1CC2(c3ccccc3)CN(C)CC(c3ccccc3)(C1)C2=O
dose: 25.0 mg/kg/injection, schedule: Q01DX009 (ip), vehicle: saline with Tween-80
  survivor count: 2 of 6

## N#CC(C#N)=CN1CCCCCC1
dose: 25.0 mg/kg/injection, schedule: Q04DX003 (ip), vehicle: saline with Tween-80
  survivor count: 5 of 6

## C#CCOc1ccccc1C(=O)NNc1ccc([N+](=O)[O-])cc1[N+](=O)[O-]
dose: 200.0 mg/kg/injection, schedule: Q01DX009 (ip), vehicle: saline with Tween-80
  survivor count: 6 of 6

## N#CC(C(=O)C(=O)Nc1ccc(Cl)c(Cl)c1)c1ccccc1 (stereo not drawn)
[7]
  survivor count: 0 of 6

## CC1([P+](C)(C)C)C2C=CC1CC2 (stereo not drawn)
dose: 200.0 mg/kg/injection, schedule: Q01DX001 (ip), vehicle: saline with Tween-80
  survivor count: 1 of 6
dose: 400.0 mg/kg/injection, schedule: Q01DX001 (ip), vehicle: saline with Tween-80
  survivor count: 0 of 6

## C[Si]c1ccccc1CN(C)C
[2]
  survivor count: 1 of 6

## CCC(C)C(NC(=O)C(Cc1cnc[nH]1)N(C(=O)OCc1ccccc1)C(=O)OCc1ccccc1)C(=O)OCc1ccccc1 (stereo not drawn)
[13]
  survivor count: 3 of 5

## CCCCCCCN(CCCCCCC)CCCC(O)c1cccc2ccccc12 (stereo not drawn)
dose: 50.0 mg/kg/injection, schedule: Q01DX005 (ip), vehicle: saline with Tween-80
  survivor count: 1 of 5
[13]
  survivor count: 0 of 5

## Cc1nn(-c2ccccc2)c(SC(C)(C)C)c1C=NCCN=Cc1c(C)nn(-c2ccccc2)c1SC(C)(C)C
dose: 30.0 mg/kg/injection, schedule: Q01DX005 (ip), vehicle: Klucel (hydroxypropylcellulose) (HPC)
  survivor count: 6 of 6
[8]
  survivor count: 5 of 6
[9]
  survivor count: 2 of 6

## Cc1nc(Cl)c(C)c(=O)[nH]1
[5]
  survivor count: 0 of 6

## CCCCCCCN(CCCCCCC)C(=N)c1ccnc2ccccc12
dose: 50.0 mg/kg/injection, schedule: Q01DX005 (ip), vehicle: Klucel (hydroxypropylcellulose) (HPC)
  survivor count: 0 of 5
dose: 100.0 mg/kg/injection, schedule: Q01DX005 (ip), vehicle: Klucel (hydroxypropylcellulose) (HPC)
  survivor count: 0 of 5
[14]
  survivor count: 0 of 5

## O=C1c2ccccc2C(=O)c2c(Nc3cc4c5c(ccc6c7ccc8c9c(cc(Nc%10cccc%11c%10C(=O)c%10ccccc%10C%11=O)c(c3c56)c97)-c3ccccc3C8=O)C(=O)c3ccccc3-4)cccc21
[14]
  survivor count: 3 of 5

## Nc1nc(-c2ccncc2)cc(-c2cc(-c3ccncc3)nc(N)n2)n1
[12]
  survivor count: 2 of 6

## Cc1cc(C)c(S(=O)(=O)N/N=C/C(=O)O)c(C)c1
dose: 25.0 mg/kg/injection, schedule: Q01DX009 (ip), vehicle: other
  T/C: 126 % of control
dose: 50.0 mg/kg/injection, schedule: Q01DX009 (ip), vehicle: other
  T/C: 137 % of control (2×)
[1]
  survivor count: 6 of 6
dose: 200.0 mg/kg/injection, schedule: Q01DX009 (ip), vehicle: other
  survivor count: 3 of 6 and 5 of 6
dose: 400.0 mg/kg/injection, schedule: Q01DX009 (ip), vehicle: other
  survivor count: 1 of 6

## O=C1C(N=Nc2ccc(Br)cc2)Sc2nc3ccccc3n21 (stereo not drawn)
[10]
  survivor count: 6 of 6

— PubChem BioAssay AID330 (DTP/NCI, 2004)
